Broadly, the EC50 is the midpoint of the concentration-response curve. High values mean weaker potency, low ones greater potency.

Experimental findings from patent US11420967B2 (priority 2018, dated 2022) are described below.

This test has as its system T98G cells. The test is described as follows: Antitumor activity in T98G cells in culture (WST-1 cell viability). Format: cell-based, human. As for the experimental part: Unless otherwise noted, maximal efficacies were measured at 10 μM. Data are the mean of at least three independent experiments performed in triplicate.
Cell culture. Cells were cultured in DMEM supplemented with 10% FBS, 100 U/mL penicillin, and 100 μg/mL streptomycin at 37° C. in a 5% CO2 humidified atmosphere. T98G and HepG2 cells (ATCC, Manassas, Va.) were authenticated by ATCC when purchased using human short tandem repeat analysis and maintained in culture for less than 6 months. Tumors were obtained from surgeries performed at the Swedish Medical Center (Seattle, Wash.) according to Institutional Review Board guidelines. Patient samples used in this study were diagnosed as WHO grade IV glioblastoma multiforme. Patient-derived GBM cells were established from the freshly resected tumor tissues and maintained in NeuroCult® NSA medium (Stem Cell Technologies) with B-27 serum-free supplement, 20 ng/mL epidermal growth factor and 20 ng/mL fibroblast growth factor 2 as previously described.
Cell viability. […] Maximal % killing was calculated as the % reduction in cell viability measured at all drug concentration. EC50 values were calculated and reported only when a curve was reliably extrapolated by Prism software. The solvent for all modified carbazoles was DMSO (0.1% final).
Background: Tetrazolium assays rely on reduction of a dye to a coloured formazan, in cell work by metabolically active cells.

For the compound `CN[C@H]1CCc2cc(OC)c(OC)c(OC)c2-c2ccc(OC)c(=O)cc21` [colcemide, reference compound], the midpoint of the response (WST-1, 72 hours after treatment), the EC50, lay at 113 nM. Further, the “maximal killing (% ± SEM)” value (at 10 μM, 72 hours) was 35.9%±6.4.
